Laboratory results as given in doi:10.1101/2021.04.01.437949 (bioRxiv, 2021).

Amino acid sequences for entries named in this document (tags omitted).
UniProt P22147, whole entry, stated change not applied: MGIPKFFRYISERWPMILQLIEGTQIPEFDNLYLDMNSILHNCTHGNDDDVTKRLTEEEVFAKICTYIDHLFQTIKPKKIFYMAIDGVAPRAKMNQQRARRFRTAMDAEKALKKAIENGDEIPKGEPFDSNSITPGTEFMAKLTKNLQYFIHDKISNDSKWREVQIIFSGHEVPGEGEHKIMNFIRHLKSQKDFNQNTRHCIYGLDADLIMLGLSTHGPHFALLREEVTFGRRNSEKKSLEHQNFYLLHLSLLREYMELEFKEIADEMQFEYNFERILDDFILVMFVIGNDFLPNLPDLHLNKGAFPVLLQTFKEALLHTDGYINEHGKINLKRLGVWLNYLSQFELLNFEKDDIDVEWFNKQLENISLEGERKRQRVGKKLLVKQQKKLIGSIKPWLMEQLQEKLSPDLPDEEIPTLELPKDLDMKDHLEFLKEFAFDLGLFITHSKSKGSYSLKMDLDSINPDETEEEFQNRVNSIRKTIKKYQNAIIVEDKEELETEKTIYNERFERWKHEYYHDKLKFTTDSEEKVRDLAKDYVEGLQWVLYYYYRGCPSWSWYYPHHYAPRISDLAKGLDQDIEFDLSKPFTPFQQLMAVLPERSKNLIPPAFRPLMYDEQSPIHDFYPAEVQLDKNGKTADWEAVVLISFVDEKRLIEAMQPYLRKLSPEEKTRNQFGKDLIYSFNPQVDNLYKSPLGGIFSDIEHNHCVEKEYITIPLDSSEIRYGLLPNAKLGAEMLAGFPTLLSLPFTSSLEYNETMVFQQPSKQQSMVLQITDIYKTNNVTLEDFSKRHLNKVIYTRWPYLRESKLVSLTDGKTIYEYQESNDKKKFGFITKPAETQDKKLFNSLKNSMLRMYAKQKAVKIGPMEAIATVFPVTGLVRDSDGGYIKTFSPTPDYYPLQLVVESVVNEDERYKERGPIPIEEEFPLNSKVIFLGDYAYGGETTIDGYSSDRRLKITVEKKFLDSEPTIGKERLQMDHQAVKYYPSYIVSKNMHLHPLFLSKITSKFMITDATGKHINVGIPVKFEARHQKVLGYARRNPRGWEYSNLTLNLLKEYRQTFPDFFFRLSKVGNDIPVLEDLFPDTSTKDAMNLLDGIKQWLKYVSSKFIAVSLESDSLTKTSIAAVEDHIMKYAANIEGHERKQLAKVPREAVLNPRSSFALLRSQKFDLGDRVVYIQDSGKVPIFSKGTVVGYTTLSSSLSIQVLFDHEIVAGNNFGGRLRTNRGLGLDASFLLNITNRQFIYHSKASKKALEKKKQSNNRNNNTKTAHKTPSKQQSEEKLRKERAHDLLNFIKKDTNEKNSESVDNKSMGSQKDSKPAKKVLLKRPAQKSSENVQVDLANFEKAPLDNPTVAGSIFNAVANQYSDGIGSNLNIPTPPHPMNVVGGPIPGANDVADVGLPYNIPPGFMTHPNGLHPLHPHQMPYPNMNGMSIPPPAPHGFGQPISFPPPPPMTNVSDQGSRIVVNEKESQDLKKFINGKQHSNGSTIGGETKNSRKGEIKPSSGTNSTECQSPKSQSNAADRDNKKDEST

Molecular target: Xrn1ΔNLS2-FLAG (Saccharomyces cerevisiae) (UniProt P22147)
Test: competition with a labelled probe
Conditions: 2 mM EDTA, RNA weakened interaction with Kap120

Sequence: AUGUACAGUCCGACGAACACGGAGUCGACCCGCAACGCGA [40 nt competitor RNA]
- binding result: binds

For at least one entry, the source does not settle the construct or the ends of the probe.
